{"source": "the supplement of paper PMC3334620", "note": "The full ranking holds about 33,000 sequences; the median of “E-score (-0.5 to 0.5)” is about -0.0034, and the highest 2% start at about 0.25. This is one part of the list.", "data": [{"target": "T1, Yap3 (UniProt P38749)", "T1 sequence": "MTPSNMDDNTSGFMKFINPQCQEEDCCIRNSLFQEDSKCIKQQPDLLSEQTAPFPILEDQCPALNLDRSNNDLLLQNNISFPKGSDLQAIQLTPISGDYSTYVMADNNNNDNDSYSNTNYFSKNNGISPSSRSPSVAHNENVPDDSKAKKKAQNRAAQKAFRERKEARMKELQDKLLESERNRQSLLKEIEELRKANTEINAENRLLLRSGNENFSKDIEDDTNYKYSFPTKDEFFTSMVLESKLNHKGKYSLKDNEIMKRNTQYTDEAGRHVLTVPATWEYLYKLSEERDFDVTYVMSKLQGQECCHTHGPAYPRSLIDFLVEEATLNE", "assay": "PBM E-score (8-mer binding enrichment) (E-score (-0.5 to 0.5)); higher = stronger / more preferred TF binding", "conditions": "protein concentration: 100 nM; construct: GST-full length", "method_in_brief": "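E-scores (a modified Wilcoxon-Mann-Whitney statistic) were assigned by the Universal PBM Analysis Suite to every ungapped eight-base word pooled with its reverse complement. The input came from universal all-10-mer Agilent arrays made double-stranded by primer extension and probed with GST-tagged yeast transcription factors at about 100-200 nM. Fluorescent anti-GST detected bound protein, and masliner normalised the scans.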", "values": [{"sequence": "CCGTGCAA", "PBM E-score": -0.113}, {"sequence": "AGAGTAAG", "PBM E-score": 0.053}, {"sequence": "ATGAAACA", "PBM E-score": 0.0614}, {"sequence": "AGCAGCAC", "PBM E-score": -0.185}, {"sequence": "TACAACTA", "PBM E-score": -0.028}, {"sequence": "GACCAGCC", "PBM E-score": -0.0967}, {"sequence": "CTGCTGAA", "PBM E-score": -0.115}, {"sequence": "AGGGGTCG", "PBM E-score": -0.224}, {"sequence": "CTGTCGTC", "PBM E-score": 0.0563}, {"sequence": "CCATTGCG", "PBM E-score": -0.0651}, {"sequence": "CCCTATGA", "PBM E-score": -0.0708}, {"sequence": "CTCATTAA", "PBM E-score": 0.0548}, {"sequence": "TCATTGGA", "PBM E-score": -0.00954}, {"sequence": "GAACCATA", "PBM E-score": 0.176}, {"sequence": "CCTTGAAA", "PBM E-score": 0.029}, {"sequence": "ATGCGGTG", "PBM E-score": -0.206}, {"sequence": "AAGGCACT", "PBM E-score": -0.182}, {"sequence": "TGAGACAA", "PBM E-score": 0.0572}, {"sequence": "TGAGTACA", "PBM E-score": 0.0906}, {"sequence": "ATAAGCAA", "PBM E-score": 0.137}, {"sequence": "ATTGCACG", "PBM E-score": 0.124}, {"sequence": "CTCCCTGC", "PBM E-score": -0.275}, {"sequence": "GAGGACGA", "PBM E-score": 0.0728}, {"sequence": "ACACCTCG", "PBM E-score": 0.0513}, {"sequence": "GCAGGAAA", "PBM E-score": 0.146}, {"sequence": "TGATGAAA", "PBM E-score": 0.0286}, {"sequence": "GTGCGAGA", "PBM E-score": 0.0126}, {"sequence": "CGGTCGAG", "PBM E-score": -0.145}, {"sequence": "CTCTCTCC", "PBM E-score": -0.293}, {"sequence": "CTCAGTTA", "PBM E-score": -0.0635}, {"sequence": "CCGGTAGC", "PBM E-score": -0.198}, {"sequence": "AGTCTCTA", "PBM E-score": -0.0735}, {"sequence": "AATTAGTA", "PBM E-score": 0.369}, {"sequence": "CGAAGAAC", "PBM E-score": 0.0703}, {"sequence": "ATTATCTC", "PBM E-score": 0.268}, {"sequence": "AGCTTATG", "PBM E-score": 0.122}, {"sequence": "CAGTAGAG", "PBM E-score": -0.0676}, {"sequence": "CTGGCAAG", "PBM E-score": -0.0263}, {"sequence": "ATTGTTAC", "PBM E-score": 0.288}, {"sequence": "AGAGCCGG", "PBM E-score": -0.399}, {"sequence": "CGGTTCGA", "PBM E-score": 0.0689}, {"sequence": "TAAGGAAA", "PBM E-score": 0.0361}, {"sequence": "AGGACGCG", "PBM E-score": -0.0853}, {"sequence": "CACGACCG", "PBM E-score": -0.187}, {"sequence": "AGCTCGCG", "PBM E-score": -0.00832}, {"sequence": "ACGCCGAG", "PBM E-score": -0.0717}, {"sequence": "GAGTCGGA", "PBM E-score": 0.0114}, {"sequence": "GGTGCAAC", "PBM E-score": -0.138}, {"sequence": "ACAAGTTA", "PBM E-score": 0.16}, {"sequence": "ACGTCTGC", "PBM E-score": -0.0931}, {"sequence": "AAAAGACG", "PBM E-score": 0.151}, {"sequence": "GAAAGCCC", "PBM E-score": -0.161}, {"sequence": "ATGAAGAA", "PBM E-score": 0.156}, {"sequence": "GCTCATAC", "PBM E-score": -0.144}, {"sequence": "CCAGTATA", "PBM E-score": 0.033}, {"sequence": "ATCCATAG", "PBM E-score": -0.0876}, {"sequence": "CCTTAAAA", "PBM E-score": -0.0934}, {"sequence": "AGTCTATG", "PBM E-score": -0.0538}, {"sequence": "TATGACGA", "PBM E-score": 0.0487}, {"sequence": "CTGCGGTC", "PBM E-score": -0.174}, {"sequence": "ATCAAGCA", "PBM E-score": 0.0599}, {"sequence": "AGTTGTGC", "PBM E-score": 0.0195}, {"sequence": "CCATCGGG", "PBM E-score": -0.167}, {"sequence": "AGGTGCAG", "PBM E-score": -0.123}, {"sequence": "CCGATTCC", "PBM E-score": 0.00421}, {"sequence": "GGCTGGTA", "PBM E-score": -0.146}, {"sequence": "GAATTCTC", "PBM E-score": 0.0826}, {"sequence": "AGAGCCCA", "PBM E-score": -0.112}, {"sequence": "GATCCACC", "PBM E-score": -0.0204}, {"sequence": "AACGTGGT", "PBM E-score": -0.0828}, {"sequence": "ATACTGGC", "PBM E-score": -0.0796}, {"sequence": "AACGGTTG", "PBM E-score": 0.0717}, {"sequence": "CTACTCAC", "PBM E-score": 0.0272}, {"sequence": "ATTCGGGC", "PBM E-score": -0.117}, {"sequence": "ACTCCACA", "PBM E-score": -0.00284}, {"sequence": "AAAGTGAA", "PBM E-score": 0.251}, {"sequence": "ACGAATTA", "PBM E-score": 0.11}, {"sequence": "AGACGGAA", "PBM E-score": 0.0609}, {"sequence": "TCCCTAAA", "PBM E-score": -0.016}, {"sequence": "GAGTATAA", "PBM E-score": 0.178}, {"sequence": "ACCAAAGG", "PBM E-score": -0.0982}, {"sequence": "CGTTTTAA", "PBM E-score": 0.126}, {"sequence": "GCGCGGAC", "PBM E-score": -0.0123}, {"sequence": "GTAATTTA", "PBM E-score": 0.238}, {"sequence": "ACCTGAAT", "PBM E-score": 0.199}, {"sequence": "CCCTGGTC", "PBM E-score": -0.323}, {"sequence": "CCCAATGC", "PBM E-score": -0.139}, {"sequence": "ACATTTTA", "PBM E-score": 0.259}, {"sequence": "GCGTTCGA", "PBM E-score": 0.0819}, {"sequence": "CGGATGGC", "PBM E-score": -0.0745}, {"sequence": "CTAGATTC", "PBM E-score": -0.0068}, {"sequence": "ATCGAACA", "PBM E-score": -0.101}, {"sequence": "CTAACTCA", "PBM E-score": -0.0595}, {"sequence": "CGGGCGGC", "PBM E-score": -0.0509}, {"sequence": "GCCAGAGC", "PBM E-score": -0.239}, {"sequence": "CCCGCCAA", "PBM E-score": -0.221}, {"sequence": "GGCGCAAA", "PBM E-score": 0.0181}, {"sequence": "AGCCCAAA", "PBM E-score": 0.138}, {"sequence": "AAACTCAA", "PBM E-score": 0.163}, {"sequence": "CGAAGCGA", "PBM E-score": -0.0743}, {"sequence": "ATGTTTCC", "PBM E-score": 0.0626}, {"sequence": "AGAGGGAC", "PBM E-score": -0.24}, {"sequence": "CGTGGGTC", "PBM E-score": -0.122}, {"sequence": "ACAGCAGT", "PBM E-score": -0.0583}, {"sequence": "CCTGGTGA", "PBM E-score": -0.0281}, {"sequence": "AAGTGACT", "PBM E-score": -0.00776}, {"sequence": "AACCCGAC", "PBM E-score": 0.0906}, {"sequence": "CAATCTCC", "PBM E-score": 0.0156}]}]}
